These are yes or no findings as the source states them, for the method shown. Binding seen in cells or lysates may run through a third protein. Where a sequence is shown, tags or fusion partners need not be part of it.
Molecular target: T1, Flag-Ago (Archipelago), transfected S2 cells (Drosophila) (UniProt Q9VZF4)
T1 sequence: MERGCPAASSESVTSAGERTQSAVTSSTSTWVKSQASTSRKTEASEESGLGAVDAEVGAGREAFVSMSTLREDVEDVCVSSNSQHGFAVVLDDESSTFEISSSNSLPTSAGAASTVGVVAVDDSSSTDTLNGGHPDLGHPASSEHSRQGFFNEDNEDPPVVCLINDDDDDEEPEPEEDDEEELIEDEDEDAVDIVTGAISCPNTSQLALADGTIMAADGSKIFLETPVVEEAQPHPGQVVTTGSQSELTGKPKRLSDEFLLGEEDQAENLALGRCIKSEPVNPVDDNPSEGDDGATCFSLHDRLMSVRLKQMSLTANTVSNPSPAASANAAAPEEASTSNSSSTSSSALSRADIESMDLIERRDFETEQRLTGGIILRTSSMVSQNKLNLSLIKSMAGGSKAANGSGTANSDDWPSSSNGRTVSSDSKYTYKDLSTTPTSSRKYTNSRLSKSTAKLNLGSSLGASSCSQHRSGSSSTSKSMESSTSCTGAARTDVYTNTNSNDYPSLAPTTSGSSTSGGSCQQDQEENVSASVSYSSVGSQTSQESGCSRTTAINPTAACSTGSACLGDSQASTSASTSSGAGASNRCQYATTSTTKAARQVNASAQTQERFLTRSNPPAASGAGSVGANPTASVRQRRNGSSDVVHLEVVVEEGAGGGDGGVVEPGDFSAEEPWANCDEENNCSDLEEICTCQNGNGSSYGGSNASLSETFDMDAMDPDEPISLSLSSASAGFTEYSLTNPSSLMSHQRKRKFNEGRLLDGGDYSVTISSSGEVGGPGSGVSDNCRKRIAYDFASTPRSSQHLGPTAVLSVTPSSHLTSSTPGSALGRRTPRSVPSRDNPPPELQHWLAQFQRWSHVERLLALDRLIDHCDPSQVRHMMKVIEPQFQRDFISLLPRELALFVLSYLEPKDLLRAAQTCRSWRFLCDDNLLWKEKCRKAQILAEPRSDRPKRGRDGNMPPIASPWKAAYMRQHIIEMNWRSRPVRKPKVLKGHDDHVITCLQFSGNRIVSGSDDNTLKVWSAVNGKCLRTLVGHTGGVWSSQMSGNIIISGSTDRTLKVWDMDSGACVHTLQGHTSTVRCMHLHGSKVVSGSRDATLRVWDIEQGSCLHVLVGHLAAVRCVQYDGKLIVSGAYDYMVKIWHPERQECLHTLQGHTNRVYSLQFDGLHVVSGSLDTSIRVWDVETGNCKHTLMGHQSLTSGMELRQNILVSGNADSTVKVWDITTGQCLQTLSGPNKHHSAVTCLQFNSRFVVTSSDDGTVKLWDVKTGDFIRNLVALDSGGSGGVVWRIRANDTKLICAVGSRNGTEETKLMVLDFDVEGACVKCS
Test: co-IP; S2 cells co-transfected with tagged Akt (Myc or Flag) and a tagged F-box protein (Flag-Slimb, Myc-Slimb^ΔWD40 or Flag-Ago); lysate immunoprecipitated, protein A/G beads, Western blot

B1: Myc-Akt, transfected S2 cells (protein, UniProt Q8INB9 1-611)
chain: MNYLPFVLQRRSTVVASAPAPGSASRIPESPTTTGSNIINIIYSQSTHPNSSPTSGSAEKFSWQQSWPSRTSAAPTHDSGTMSINTTFDLSSPSVTSGHALTEQTQVVKEGWLMKRGEHIKNWRQRYFVLHSDGRLMGYRSKPADSASTPSDFLLNNFTVRGCQIMTVDRPKPFTFIIRGLQWTTVIERTFAVESELERQQWTEAIRNVSSRLIDVGEVAMTPSEQTDMTDVDMATIAEDELSEQFSVQGTTCNSSGVKKVTLENFEFLKVLGKGTFGKVILCREKATAKLYAIKILKKEVIIQKDEVAHTLTESRVLKSTNHPFLISLKYSFQTNDRLCFVMQYVNGGELFWHLSHERIFTEDRTRFYGAEIISALGYLHSQGIIYRDLKLENLLLDKDGHIKVADFGLCKEDITYGRTTKTFCGTPEYLAPEVLDDNDYGQAVDWWGTGVVMYEMICGRLPFYNRDHDVLFTLILVEEVKFPRNITDEAKNLLAGLLAKDPKKRLGGGKDDVKEIQAHPFFASINWTDLVLKKIPPPFKPQVTSDTDTRYFDKEFTGESVELTPPDPTGPLGSIAEEPLFPQFSYQGDMASTLGTSSHISTSTSLASMQ
With B1 as the binder, how does the binding read?
The binding was “no binding”.

From PMC3775723
